PubChem BioAssay AID1259424 | University of Nebraska Medical Center | 2018
Test: 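Seek colon cancer survival genes behaving like KSR1, using a six-gene signature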 (primary screen). Cells: human HCT116 colon cancer cells. Reagents: siRNA pool against human genes, 50 nM. Read-out: 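Six signature mRNAs by branched-DNA multiplex assay, scaled to two housekeeping genes and non-targeting median, log2; matched to mean KSR1 knockdown profile by Pearson correlation and euclidean distance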. Direction: mean correlation with KSR1 profile and KSR1 correlation: higher = expression change more like KSR1 knockdown; mean distance from KSR1 profile: higher = expression change less like KSR1 knockdown.
This is an unselected part of about 14,000 reagents tested. 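Higher correlation or smaller distance means closer resemblance to KSR1 loss; control wells, including KSR1 knockdowns, recur on many plates.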 Not all columns of the deposit are shown. No sequences are given here. The record does not give: the time to read-out.

target	mean correlation with KSR1 profile	mean distance from KSR1 profile	KSR1 correlation, replicate 1	KSR1 correlation, replicate 2
APOBEC3G (apolipoprotein B mRNA editing enzyme catalytic subunit 3G)	0.182	1.79	0.177	0.129
ALPG (alkaline phosphatase, germ cell)	-0.0999	4.02	-0.018	-0.145
NEK1 (NIMA related kinase 1)	0.0658	2.49	0.352	0.242
GPR137B (G protein-coupled receptor 137B)	-0.409	2.81	-0.254	-0.542
CCIN (calicin)	-0.0316	3.73	-0.00728	-0.178
MAPK12 (mitogen-activated protein kinase 12)	-0.0412	2.93	0.215	0.221
DMGDH (dimethylglycine dehydrogenase)	0.613	3.58	0.304	0.322
LCAT (lecithin-cholesterol acyltransferase)	-0.216	1.94	-0.102	-0.207
WWC2 (WW and C2 domain containing 2)	0.17	3.3	0.185	0.0598
KCNG3	-0.325	2.13	-0.371	-0.302
LRRC14 (leucine rich repeat containing 14)	-0.787	3.42	-0.821	-0.706
IQCE (IQ motif containing E)	-0.376	1.65	-0.265	-0.464
NME5 (NME/NM23 family member 5)	0.561	1.57	0.676	0.506
CALML3 (calmodulin like 3)	-0.313	4.46	-0.189	-0.295
TXNDC12 (thioredoxin domain containing 12)	-0.535	2.55	-0.559	-0.53
MACROH2A2 (macroH2A.2 histone)	-0.394	3.34	-0.356	-0.488
EDARADD (EDAR associated via death domain)	-0.0447	1.25	-0.162	0.0205
RASGRP3 (RAS guanyl releasing protein 3)	-0.384	3.23	-0.504	-0.217
ACTR2 (actin related protein 2)	-0.0608	2.44	-0.198	-0.178
DLG4 (discs large MAGUK scaffold protein 4)	0.0843	2.99	0.228	0.379
